Measured values from article PMC7819943, “Rice protein-binding microarrays: a tool to detect cis-acting elements near promoter regions in rice”.
The other results are listed elsewhere or left out.

By UniProt entry, the sequences of proteins in these tests, tags left out.
UniProt Q0JBA9, entry or part of it: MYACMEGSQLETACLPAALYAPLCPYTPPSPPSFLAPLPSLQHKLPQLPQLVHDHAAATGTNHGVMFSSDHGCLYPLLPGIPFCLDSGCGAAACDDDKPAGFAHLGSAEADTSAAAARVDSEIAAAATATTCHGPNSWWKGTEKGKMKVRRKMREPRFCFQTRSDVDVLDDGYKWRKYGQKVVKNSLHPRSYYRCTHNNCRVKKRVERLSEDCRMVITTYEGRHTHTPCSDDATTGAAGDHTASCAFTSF

Target: OsWRKY34 (Oryza sativa, UniProt Q0JBA9 1-250)
Experiment: protein-binding microarray (RPBM); PBS, 2% BSA, 51.3 ng/ul salmon testes DNA, 50 uM zinc acetate, 200 nM TF, 25 C, 1 h; high values mean tight binding
Conditions: protein: recombinant; tags: N-terminal polyhistidine and DsRed monomer fusion (pET32a); label: CyDye5-dUTP incorporated in the synthesized complementary strand; 3' TTTTT single-stranded linker to array surface; dsDNA, one strand shown
Procedure, shortened: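 The binding signal is fluorescence intensity per feature, in arbitrary units, read on an Axon 4000B scanner. Polyhistidine- and DsRed-tagged transcription factors (N-terminal fusions) from E. coli BL21-CodonPlus were purified on Ni–NTA and applied at 200 nM for 1 h at 25 °C to a double-stranded, BSA-blocked custom Agilent array in buffer with 50 µM zinc acetate.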

Sequence | binding signal
AAAAAAGTCCACACAGATCCATTCCTCACATTTTACATTTCGGAGTCACCTAGTGCAG | 9510 fluorescence intensity (a.u.)
ATAAACATAGAGGGTTGTTATTTTGCTAGTTATCATTTATCGGAGTCACCTAGTGCAG | 8930 fluorescence intensity (a.u.)
CTATAGCACAACGACCTTATTCTATCTCTCGTCAACGCTTCGGAGTCACCTAGTGCAG | 9000 fluorescence intensity (a.u.)
CCCTCACATGTGTTGTGTTTTGCTTGCTTGTGTGATTAGTCGGAGTCACCTAGTGCAG | 11600 fluorescence intensity (a.u.)
TCTTTCCTTATTTTCCCATGTTATTTTTCCATTTTCCCCTCGGAGTCACCTAGTGCAG | 9620 fluorescence intensity (a.u.)
ATTTTCTTTAAGAGATGTTCTTGTCTGTTGTCAGGTTTGTCGGAGTCACCTAGTGCAG | 9670 fluorescence intensity (a.u.)
GAGGAAACATCTATCCCGGTCAAAGCCTGAGCATGTACACCGGAGTCACCTAGTGCAG | 8210 fluorescence intensity (a.u.)
TCCGCCGCGTTTCGCACCACCACCACCGCCGCCGACCATGCGGAGTCACCTAGTGCAG | 10000 fluorescence intensity (a.u.)
GTCCGGAACGTTATAACGATTCACGTTTGGCCCATTTTATCGGAGTCACCTAGTGCAG | 10500 fluorescence intensity (a.u.)
GCCGCCGACGCCCTCCTCCTCTCCCACTTCGCACTGCCGGCGGAGTCACCTAGTGCAG | 8350 fluorescence intensity (a.u.)
CCCTATAATTCACAACACATCTTAGACTGTGTTCTTTTCCCGGAGTCACCTAGTGCAG | 9220 fluorescence intensity (a.u.)
CCACTTCCGACCTAAACCCTTCATATCCCACCACCGGAAACGGAGTCACCTAGTGCAG | 9090 fluorescence intensity (a.u.)
GCCAATCCCTCCATGCCTTCTCGGGCTCATGGTGGAGGGGCGGAGTCACCTAGTGCAG | 11000 fluorescence intensity (a.u.)
GTCTCATCGTCTGTCTCGCTCGGCGCTCGTCTTTCTCCCCCGGAGTCACCTAGTGCAG | 9580 fluorescence intensity (a.u.)
TTTGTCGACCTACTGCTATTGGTACTTCTGCTGGCTGAACCGGAGTCACCTAGTGCAG | 8860 fluorescence intensity (a.u.)
GAACCCTTCGCCGTCGCCGGCGATCCCACCGACTCCCGGCCGGAGTCACCTAGTGCAG | 8520 fluorescence intensity (a.u.)
AGCCACTGATACCCACACCTATGGATTGCTGCCCCACTTTCGGAGTCACCTAGTGCAG | 12000 fluorescence intensity (a.u.)
TATTTGCTGTTTTCGGTGATTCGGTCGTTTCGGCCGGATCCGGAGTCACCTAGTGCAG | 9390 fluorescence intensity (a.u.)
GACTATAGAGGCTTTGTTTGTTTGGGGTGTGTTTTTGTCTCGGAGTCACCTAGTGCAG | 17200 fluorescence intensity (a.u.)
TTTTACCCTTGGTGGTTTTAATTCGTTCATTTTTTCTATGCGGAGTCACCTAGTGCAG | 8560 fluorescence intensity (a.u.)
TCTAATAGTAGTTGACTAAATCTCGGCAAGACCCACCACACGGAGTCACCTAGTGCAG | 9550 fluorescence intensity (a.u.)

Sequence | binding signal
ACTGTATTTGGGCTGTGGGCCGTAGGCTGTCTCTTCTCAACGGAGTCACCTAGTGCAG | 8260 fluorescence intensity (a.u.)
GAACTCGAACTCTTCTAGATAAGCTTCCTTTGATTGATCCCGGAGTCACCTAGTGCAG | 8070 fluorescence intensity (a.u.)
GGCTCTCTAGCTCGGTCGATCATCCATGACGTCACTACAACGGAGTCACCTAGTGCAG | 9630 fluorescence intensity (a.u.)
ACTCGTCTTGACCCATAGTCCCCTGCTCGTACTGCTTGCTCGGAGTCACCTAGTGCAG | 8160 fluorescence intensity (a.u.)
CTATAAATCTCGCTCCATCAGCAAGCCAGCTCTCATCAACCGGAGTCACCTAGTGCAG | 8650 fluorescence intensity (a.u.)
TCGCGTTCCGTTTCGTTGCGACGCCACGCGAGCCATGCTGCGGAGTCACCTAGTGCAG | 8280 fluorescence intensity (a.u.)
AGCCCATTCATGAAACCTAATAGCTCGGATTCTGCCCCTACGGAGTCACCTAGTGCAG | 8330 fluorescence intensity (a.u.)
TTCTTTTTTTTGCTCGTCTCTTCCTCATCCTCTCACCGCCCGGAGTCACCTAGTGCAG | 8840 fluorescence intensity (a.u.)
CTGAACTCTCTCTCGCTCTCCGGCTCTCTGTATTCCTTCACGGAGTCACCTAGTGCAG | 19800 fluorescence intensity (a.u.)
GCTTCCGGCTTCTAGTTCATTTTCTAAATTCTACAACTAACGGAGTCACCTAGTGCAG | 9110 fluorescence intensity (a.u.)
ACCACTCACATGTACTGTCAGCATATCCTACGTTCTCTCCCGGAGTCACCTAGTGCAG | 14500 fluorescence intensity (a.u.)
GACTCGTAGTCTTGCCCATGTTAAAATTTCTCGTGTCAATCGGAGTCACCTAGTGCAG | 8610 fluorescence intensity (a.u.)
CGTGGTGGTGGTAGGGGAGGGGATGGATGATATGGCGTGACGGAGTCACCTAGTGCAG | 22400 fluorescence intensity (a.u.)
CTGCTCCGTCCTCCATGATCAACTTTTTCCTGCGAGCTCGCGGAGTCACCTAGTGCAG | 10400 fluorescence intensity (a.u.)
GCACTGTCAAATAATGCTCATCCTCGCCGAGCAATCATCACGGAGTCACCTAGTGCAG | 8192 fluorescence intensity (a.u.)
ATTTTCTTGGTTTGGATTTCGCGGTGGTCGTGTGGTTTGCCGGAGTCACCTAGTGCAG | 11000 fluorescence intensity (a.u.)
AGTTTAGTGGTTATTTGCCGTTTTCTCTTTTTTTCAATTTCGGAGTCACCTAGTGCAG | 12700 fluorescence intensity (a.u.)
TTTTCCCGCGCTTTTTTTTCCTTCCCCACCCAGCTGCGCGCGGAGTCACCTAGTGCAG | 9120 fluorescence intensity (a.u.)
TCGCCATCTCTCTCAGCTCTCACAGCTCACTGCATCAATGCGGAGTCACCTAGTGCAG | 10600 fluorescence intensity (a.u.)
TTGTCGTTCGTCGACCTTCCTTCATTTTTGGTCAACACATCGGAGTCACCTAGTGCAG | 8130 fluorescence intensity (a.u.)
GCGACCGATCTATCCCAATCACTTGGTTTAAGTATATATCCGGAGTCACCTAGTGCAG | 10500 fluorescence intensity (a.u.)

Sequence | binding signal
TCCTGGCCACAGCAACCCACACATTCCTTGTACTTCTTCCCGGAGTCACCTAGTGCAG | 8610 fluorescence intensity (a.u.)
GTCCTGCTTGTTGATGTCATCCTTCCAGAATTCGATGTCGCGGAGTCACCTAGTGCAG | 10100 fluorescence intensity (a.u.)
TAGCTCACTCAATTACGGCTACTAGCTACTGTAGCTATACCGGAGTCACCTAGTGCAG | 8640 fluorescence intensity (a.u.)
GGTATCCCTTCTCTCCATCTCTTTGCTCACACCTATTATCCGGAGTCACCTAGTGCAG | 8880 fluorescence intensity (a.u.)
AATATGGTATGAGCATTATCCGTCCGTATCCGCTCCTTTTCGGAGTCACCTAGTGCAG | 10900 fluorescence intensity (a.u.)
ACCACAGCCTCTCACCCTCACTATAAATAAGCCCATTAATCGGAGTCACCTAGTGCAG | 9180 fluorescence intensity (a.u.)
TTTATTTTCCATTTTCTTCTCATTCTTCTTTTTTTCCTTTCGGAGTCACCTAGTGCAG | 8620 fluorescence intensity (a.u.)
GTGAGCGTGTGTGAGTATGGTGTTACATGTTTAATAGTGTCGGAGTCACCTAGTGCAG | 8180 fluorescence intensity (a.u.)
AGTTGTAGTTTAATTTATTTTTTTCGTTGCGAGATGTAAACGGAGTCACCTAGTGCAG | 8730 fluorescence intensity (a.u.)
TCAAACACCCAAACCCTTAACCTCAGTATCCTCTTCTTCTCGGAGTCACCTAGTGCAG | 8290 fluorescence intensity (a.u.)
CCTCGTTCGTTCGTCGCTGACGGCACATTATTATATCCTACGGAGTCACCTAGTGCAG | 9320 fluorescence intensity (a.u.)
AAGAACGGTTACTTTTTTGCAATATTGTGGTTGCATTTATCGGAGTCACCTAGTGCAG | 9930 fluorescence intensity (a.u.)
GGGGTGGGTTCTGAGGATTCGAGGCGGCAGGTCGCCTCCGCGGAGTCACCTAGTGCAG | 13200 fluorescence intensity (a.u.)
GGATGGGCAGTGCTCGTCTTGACTTCTATGTATGCATTCTCGGAGTCACCTAGTGCAG | 9170 fluorescence intensity (a.u.)
TCAGTTTTTTTTGCTAGTGAACAGGAGGTTGTTATTTTCACGGAGTCACCTAGTGCAG | 9030 fluorescence intensity (a.u.)
AACATAACTGTCTTCTTCCATTTGTATGTCATGTTTCTGTCGGAGTCACCTAGTGCAG | 10700 fluorescence intensity (a.u.)
AAATAAGACAAATGGTCAAACATGTGCTAAAAAGTCAACGCGGAGTCACCTAGTGCAG | 14200 fluorescence intensity (a.u.)
TTCCACTCTAGTAATTCATACGCACAGTTCATGCTTTGTTCGGAGTCACCTAGTGCAG | 9400 fluorescence intensity (a.u.)
CCCTTTCCTCGTCGTCGTCCACGCATGCCGTCCACCGGCGCGGAGTCACCTAGTGCAG | 9820 fluorescence intensity (a.u.)
TTCGCCTTTGTTAGCCTTTGTTTCGCGCCTGTCGCCATTGCGGAGTCACCTAGTGCAG | 8740 fluorescence intensity (a.u.)
GGGTGGGATTGGGATTGGGAAATGAATGAAGGGTTAGGATCGGAGTCACCTAGTGCAG | 16400 fluorescence intensity (a.u.)

Sequence | binding signal
CGCTCCACCCGCCGCCTCCCACTCGCGCCGCTCGCCACATCGGAGTCACCTAGTGCAG | 9660 fluorescence intensity (a.u.)
CTCCGAGCCGAGTCGAGTTGACTGGTCGGTCTATTCTCCTCGGAGTCACCTAGTGCAG | 9430 fluorescence intensity (a.u.)
CTGCTGCATTATCTTTATATATTTTTTGATGAATTTTATCCGGAGTCACCTAGTGCAG | 8890 fluorescence intensity (a.u.)
AGAGATGATGTGACTGAAAAGTTGTGTGTGTATGATAGGTCGGAGTCACCTAGTGCAG | 8040 fluorescence intensity (a.u.)
ATTTTAATATTTGACGCCGTTGACTTTTTGTATGTTTGACCGGAGTCACCTAGTGCAG | 42500 fluorescence intensity (a.u.)
GTGGATGTTGGAGATGTTCGGTAAAGGAGTCAAAGGAAATCGGAGTCACCTAGTGCAG | 8630 fluorescence intensity (a.u.)
GTGTGTGTGTTTGTGTGACCTGGCCTTTGTATGAATGGAACGGAGTCACCTAGTGCAG | 10600 fluorescence intensity (a.u.)
GTCGCCGTATATGTCATGTCCTTCGCCGGCGTCTCTTTCACGGAGTCACCTAGTGCAG | 12000 fluorescence intensity (a.u.)
CGGAGGCATGGGGAGGCTGCTGCGGCGCCAATTGTGGCCACGGAGTCACCTAGTGCAG | 8860 fluorescence intensity (a.u.)
CCGCCGCCGCCGCCGATCCCCATCCATCCCGCGAGCGAGCCGGAGTCACCTAGTGCAG | 8160 fluorescence intensity (a.u.)
TAAGACACTTTATATAATACTCTCTCCATTTACTTTTGATCGGAGTCACCTAGTGCAG | 8500 fluorescence intensity (a.u.)
AATACGTCCCATCAGGTTTTAGGTTGCTATATTATGAAGTCGGAGTCACCTAGTGCAG | 8030 fluorescence intensity (a.u.)
TATATTTATAGTAGTTCTGTACGTAGTTTTTCTGTGTTTTCGGAGTCACCTAGTGCAG | 9860 fluorescence intensity (a.u.)
AAGGCTAAGGGTGAATGCGTTTGGTAGAGGGGAGATTTTACGGAGTCACCTAGTGCAG | 8730 fluorescence intensity (a.u.)
CCACTAATATGTCACTCAACATGTCTTAAGCAAGTTTTGACGGAGTCACCTAGTGCAG | 8470 fluorescence intensity (a.u.)
GCAGTTTTGCACTATTCATGTTCAACGTTTGACCGTCCGTCGGAGTCACCTAGTGCAG | 10400 fluorescence intensity (a.u.)
TCATGGCGGTACGTTTAATTTCTCCAATCACTTTTGTTTCCGGAGTCACCTAGTGCAG | 9880 fluorescence intensity (a.u.)
CCCAGGTTCTCATCTCTCACTTTTGCTTCTTTGATTATAGCGGAGTCACCTAGTGCAG | 8250 fluorescence intensity (a.u.)
TACTGTCAATTTGCGTCTCGCTATAAATATGTTTCTGCTTCGGAGTCACCTAGTGCAG | 9010 fluorescence intensity (a.u.)
CTATGAAGTTAAAAATACGCTCATCAGAAAGGATATATTTCGGAGTCACCTAGTGCAG | 57200 fluorescence intensity (a.u.)
AGATCAGATTCTGTACACAGTTCGTCTTCTTGCTCGGTGACGGAGTCACCTAGTGCAG | 8420 fluorescence intensity (a.u.)

Pulled one by one from above:
Sequence | binding signal
CTGCTGCATTATCTTTATATATTTTTTGATGAATTTTATCCGGAGTCACCTAGTGCAG | 8890 fluorescence intensity (a.u.)
GCAGTTTTGCACTATTCATGTTCAACGTTTGACCGTCCGTCGGAGTCACCTAGTGCAG | 10400 fluorescence intensity (a.u.)
TACTGTCAATTTGCGTCTCGCTATAAATATGTTTCTGCTTCGGAGTCACCTAGTGCAG | 9010 fluorescence intensity (a.u.)
CGGAGGCATGGGGAGGCTGCTGCGGCGCCAATTGTGGCCACGGAGTCACCTAGTGCAG | 8860 fluorescence intensity (a.u.)
GTGGATGTTGGAGATGTTCGGTAAAGGAGTCAAAGGAAATCGGAGTCACCTAGTGCAG | 8630 fluorescence intensity (a.u.)
